{
  "source": "patent US20230382991A1",
  "binders": {"B1": {"name": "B1.2.2 monoclonal antibody (antibody, V domains shown)", "VH": "EVQLVESGGGLVKPGGSLKLSCAASGFTFSDYGMHWVRQAPEKGLEWVAYISSGSSTSYYADTVKGRFTISRDDAKNTLFLQMTSLRSEDTAMYYCARPGSNWDVYYAMDYWGQGTSVTVSS", "VL": "DIVLTQSPASLAVSLGQRATISCRASQSVSTSSYSYMHWYQQKPGQPPKLLIKNASNLESGVPARFSGSGSGTDFTLNIHPVEEEDTATYYCQHSWEIPFTFGGGTKLEIK"}},
  "molecular_target": "cynomolgus macaque LILRB1 on dendritic cell subsets of injected macaques (cynomolgus macaque)",
  "experiment": "ex vivo staining of blood pDC of the injected macaque with Alexa 647-labelled B1.2.2 (clone 20G10); y axis '% of positive cells'",
  "note": "Results are given in words; binding and its absence hold for the method and conditions named. Binding can be weak; no strength is given.",
  "data": [
    {"binder": "B1", "values": [
      {"measurement": "binding", "value": "binds"}
    ]}
  ]
}
